# The supplement of paper PMC8728848
# The other results are listed elsewhere or left out.
# Legend:
# Experiment in all cases: glycan array binding signal (z-score within array); higher = stronger binding
# Conditions in all cases: glycan notation: IUPAC condensed, linker removed
# [1] = biological target: Fuc(a1-2)Gal
# In short: (§1)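 Columns mapping to the same glycan were averaged after glycan names were converted to IUPAC-condensed notation. The data come from 3228 arrays in the Consortium for Functional Glycomics database, limited to those with an available protein sequence. Binding is reported as a within-array Z-score averaged across arrays of one protein sequence and across linkers.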
# [2] = biological target: Fuc(a1-2)Gal(b1-3)GalNAc
# In short: as §1
# [3] = biological target: Fuc(a1-2)Gal(b1-3)GalNAc(a1-3)[Fuc(a1-2)]Gal(b1-4)Glc
# In short: as §1
# [4] = biological target: Fuc(a1-2)Gal(b1-3)GalNAc(a1-3)[Fuc(a1-2)]Gal(b1-4)GlcNAc
# In short: as §1
# [5] = biological target: Fuc(a1-2)Gal(b1-3)GalNAc(b1-3)Gal
# In short: as §1
# [6] = biological target: Fuc(a1-2)Gal(b1-3)GalNAc(b1-3)Gal(a1-4)Gal(b1-4)Glc
# In short: as §1
# [7] = biological target: Fuc(a1-2)Gal(b1-3)GalNAc(b1-4)[Neu5Ac(a2-3)]Gal(b1-4)Glc
# In short: as §1
# [8] = biological target: Fuc(a1-2)Gal(b1-3)GlcNAc
# In short: as §1
# [9] = biological target: Fuc(a1-2)Gal(b1-3)GlcNAc(b1-2)Man(a1-3)[Fuc(a1-2)Gal(b1-3)GlcNAc(b1-2)Man(a1-6)]Man(b1-4)GlcNAc(b1-4)GlcNAc
# In short: as §1
# [10] = biological target: Fuc(a1-2)Gal(b1-3)GlcNAc(b1-2)Man(a1-3)[Fuc(a1-2)Gal(b1-3)GlcNAc(b1-2)Man(a1-6)]Man(b1-4)GlcNAc(b1-4)[Fuc(a1-6)]GlcNAc
# In short: as §1
# [11] = biological target: Fuc(a1-2)Gal(b1-3)GlcNAc(b1-3)Gal(b1-4)Glc
# In short: as §1
# [12] = biological target: Fuc(a1-2)Gal(b1-3)GlcNAc(b1-3)GalNAc
# In short: as §1
# [13] = biological target: Fuc(a1-2)Gal(b1-3)GlcNAc(b1-3)[Fuc(a1-2)Gal(b1-3)GlcNAc(b1-6)]GalNAc
# In short: as §1
# [14] = biological target: Fuc(a1-2)Gal(b1-3)GlcNAc(b1-3)[Gal(b1-4)GlcNAc(b1-6)]Gal(b1-4)Glc
# In short: as §1
# [15] = biological target: Fuc(a1-2)Gal(b1-3)GlcNAc(b1-3)[Neu5Ac(a2-6)Gal(b1-4)GlcNAc(b1-6)]Gal(b1-4)Glc
# In short: as §1
# [16] = biological target: Fuc(a1-2)Gal(b1-3)GlcNAc6S
# In short: as §1
# [17] = biological target: Fuc(a1-2)Gal(b1-3)[Fuc(a1-4)]GlcNAc
# In short: as §1
# [18] = biological target: Fuc(a1-2)Gal(b1-3)[Fuc(a1-4)]GlcNAc(b1-2)Man(a1-3)[Fuc(a1-2)Gal(b1-3)[Fuc(a1-4)]GlcNAc(b1-2)Man(a1-3)]Man(b1-4)GlcNAc(b1-4)GlcNAc
# In short: as §1
# [19] = biological target: Fuc(a1-2)Gal(b1-3)[Fuc(a1-4)]GlcNAc(b1-2)Man(a1-3)[Fuc(a1-2)Gal(b1-3)[Fuc(a1-4)]GlcNAc(b1-2)Man(a1-6)]Man(b1-4)GlcNAc(b1-4)[Fuc(a1-6)]GlcNAc(b1-4)[Fuc(a1-6)]GlcNAc
# In short: as §1
# [20] = biological target: Fuc(a1-2)Gal(b1-3)[Fuc(a1-4)]GlcNAc(b1-3)[Fuc(a1-3)[Gal(b1-4)]GlcNAc(b1-6)]Gal(b1-4)Glc
# In short: as §1
# [21] = biological target: Fuc(a1-2)Gal(b1-3)[Fuc(a1-4)]GlcNAc(b1-3)[Gal(b1-4)GlcNAc(b1-6)]Gal(b1-4)Glc
# In short: as §1
# [22] = biological target: Fuc(a1-2)Gal(b1-4)Fuc(a1-3)]GlcNAc(b1-2)Man(a1-3)[Fuc(a1-2)Gal(b1-4)[Fuc(a1-3)]GlcNAc(b1-2)Man(a1-6)]Man(b1-4)GlcNAc(b1-4)GlcNAc
# In short: as §1
# [23] = biological target: Fuc(a1-2)Gal(b1-4)Glc
# In short: as §1
# [24] = biological target: Fuc(a1-2)Gal(b1-4)Glc6S
# In short: as §1
# [25] = biological target: Fuc(a1-2)Gal(b1-4)GlcNAc
# In short: as §1
# [26] = biological target: Fuc(a1-2)Gal(b1-4)GlcNAc(b1-2)Man
# In short: as §1
# [27] = biological target: Fuc(a1-2)Gal(b1-4)GlcNAc(b1-2)Man(a1-3)[Fuc(a1-2)Gal(b1-4)GlcNAc(b1-2)Man(a1-6)]Man(b1-4)GlcNAc(b1-4)GlcNAc
# In short: as §1
# [28] = biological target: Fuc(a1-2)Gal(b1-4)GlcNAc(b1-2)Man(a1-3)[Fuc(a1-2)Gal(b1-4)GlcNAc(b1-2)Man(a1-6)]Man(b1-4)GlcNAc(b1-4)[Fuc(a1-6)]GlcNAc
# In short: as §1
# [29] = biological target: Fuc(a1-2)Gal(b1-4)GlcNAc(b1-2)[Fuc(a1-2)Gal(b1-4)GlcNAc(b1-4)]Man(a1-3)[Fuc(a1-2)Gal(b1-4)GlcNAc(b1-2)Man(a1-6)]Man(b1-4)GlcNAc(b1-4)GlcNAc
# In short: as §1
# [30] = biological target: Fuc(a1-2)Gal(b1-4)GlcNAc(b1-3)Gal(b1-4)GlcNAc
# In short: as §1
binder,measurement,setting,value
LlpA (Burkholderia cenocepacia) (protein) MGSSHHHHHHSSGLVPRGSHKILGSNETLSAGNVVYSDNGQYHLAMQTDGNLVVYGPTGAVWQSQTSGSGGNRAVMQGDGNLVIYRADNTAAWSSKTAHPGAFLAVQDDGNVVIYWPRPAWASNTSDPATQQSAESKYLASGSTMSAGQTVTVAQYMLVFQADGNLVLYKNGGNPIWSTGTQGKGATYAVMQSDGNFVIYAGSTALWSTKTNGANGAQLVLQSDGNLVIYAPTAAWSTKFGLVTAPTSTSTSNNGPGSGICVGVCPPHPLNGNPFSPVGVGTTGLGFPTPGYPGAAF,glycan array binding signal (z-score),[1],1.82
same,glycan array binding signal (z-score),[2],0.122
same,glycan array binding signal (z-score),[3],0.28
same,glycan array binding signal (z-score),[4],-0.175
same,glycan array binding signal (z-score),[5],0.215
same,glycan array binding signal (z-score),[6],-0.064
same,glycan array binding signal (z-score),[7],0.65
same,glycan array binding signal (z-score),[8],0.011
same,glycan array binding signal (z-score),[9],0.32
same,glycan array binding signal (z-score),[10],0.83
same,glycan array binding signal (z-score),[11],-0.297
same,glycan array binding signal (z-score),[12],-0.128
same,glycan array binding signal (z-score),[13],-0.555
same,glycan array binding signal (z-score),[14],-0.278
same,glycan array binding signal (z-score),[15],-0.608
same,glycan array binding signal (z-score),[16],-1.48
same,glycan array binding signal (z-score),[17],-0.455
same,glycan array binding signal (z-score),[18],0.829
same,glycan array binding signal (z-score),[19],0.099
same,glycan array binding signal (z-score),[20],-1.54
same,glycan array binding signal (z-score),[21],-0.705
same,glycan array binding signal (z-score),[22],1.61
same,glycan array binding signal (z-score),[23],-0.279
same,glycan array binding signal (z-score),[24],-0.487
same,glycan array binding signal (z-score),[25],0.123
same,glycan array binding signal (z-score),[26],1.56
same,glycan array binding signal (z-score),[27],-0.314
same,glycan array binding signal (z-score),[28],1.62
same,glycan array binding signal (z-score),[29],-0.53
same,glycan array binding signal (z-score),[30],-0.678

# Quoted at random: 2 records from the list, in no set order.
binder,measurement,setting,value
LlpA (Burkholderia cenocepacia) (protein) MGSSHHHHHHSSGLVPRGSHKILGSNETLSAGNVVYSDNGQYHLAMQTDGNLVVYGPTGAVWQSQTSGSGGNRAVMQGDGNLVIYRADNTAAWSSKTAHPGAFLAVQDDGNVVIYWPRPAWASNTSDPATQQSAESKYLASGSTMSAGQTVTVAQYMLVFQADGNLVLYKNGGNPIWSTGTQGKGATYAVMQSDGNFVIYAGSTALWSTKTNGANGAQLVLQSDGNLVIYAPTAAWSTKFGLVTAPTSTSTSNNGPGSGICVGVCPPHPLNGNPFSPVGVGTTGLGFPTPGYPGAAF,glycan array binding signal (z-score),[26],1.56
same,glycan array binding signal (z-score),[7],0.65
